Test results as given in PubChem BioAssay AID2517 (National Center for Advancing Translational Sciences (NCATS), 2010).
In all, about 350,000 compounds went through this assay and about 1,200 (0.34%) were called active. The inconclusive results got no clear call from the source; some entries with a clear call stand among them for comparison. Calls follow the shape of the dose curve; as a rule, active = well fitted inhibition curve with a large enough effect; inconclusive = small, poorly fitted or top-dose-only effect; inactive = no such curve, though single readings can be large or run the other way. Potencies beside an inconclusive call are fits to weak or partial responses and may not hold up. Residues, ends and D or L forms follow the SMILES beside them.

By UniProt entry, the sequences of proteins in these tests, tags left out.
UniProt P27695, whole entry, looked up: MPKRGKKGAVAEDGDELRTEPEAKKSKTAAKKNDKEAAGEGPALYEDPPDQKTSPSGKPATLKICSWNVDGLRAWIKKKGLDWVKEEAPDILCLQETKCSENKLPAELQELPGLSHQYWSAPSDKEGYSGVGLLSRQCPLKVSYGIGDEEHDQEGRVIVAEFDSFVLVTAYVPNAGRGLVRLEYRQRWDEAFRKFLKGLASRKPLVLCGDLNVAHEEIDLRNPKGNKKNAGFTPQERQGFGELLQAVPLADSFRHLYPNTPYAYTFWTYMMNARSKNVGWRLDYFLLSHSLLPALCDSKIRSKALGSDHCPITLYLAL

molecular target: DNA repair nuclease/redox regulator APEX1 (Homo sapiens) (UniProt P27695); experiment: qHTS Assay for Inhibitors of the Human Apurinic/apyrimidinic Endonuclease 1 (APE1); conditions: recombinant APE1, TAMRA/BHQ-2 abasic DNA cleavage fluorescence; activity change, negative = inhibition: at 65.8 µM (top of the series); also: nearly all actives have a fitted effect of over 55% in size;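 as to activity change, negative = inhibition: plate controls were vehicle for no effect and reference inhibitor for full effect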
How it was run: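 Enzyme (0.75 nM final) and test compound are incubated 15 min at room temperature before adding 50 nM quenched THF abasic-site duplex. Cleavage dequenches TAMRA, followed at 525/598 nm over three reads one minute apart.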
Potency is read from the fitted curve at half-maximal effect.

| Compound | Potency | activity change, negative = inhibition |
| --- | --- | --- |
| COc1cccc(N2C(=O)NC(=O)/C(=C/c3ccc([N+](=O)[O-])s3)C2=O)c1 | inconclusive: 17.8 µM [inhibitor, single point] |  |
| COc1ccc(-n2c(/C=C/c3ccc4c(c3)OCO4)nc3ccccc3c2=O)cc1 | inconclusive: 22.4 µM [inhibitor, single point] |  |
| CN1C(=O)NC(=O)/C(=C/c2ccc([N+](=O)[O-])o2)C1=O | inconclusive: 31.6 µM [inhibitor, single point] |  |
| Cc1cc(C)c(-n2c(O)c(/C=N/N3CCCCC3c3cccnc3)c(=O)[nH]c2=O)c(C)c1 (configuration not stated) | inconclusive: 39.8 µM [inhibitor, single point] |  |
| C=CCN1CCc2cccc3c2C1Cc1ccc(O)c(O)c1-3 (configuration not stated) | inconclusive: 1.26 µM [inhibitor, full curve, poor fit] |  |
| O=C1CC(=O)N(c2ccc(Cl)cc2Cl)C(=O)N1 |  | inactive: -1.77% |
| C[C@@H]1CO1 |  | inactive: 0.471% |
| CC(C)CCNC(=O)c1c(N)n(CC2CCCO2)c2nc3ccccc3nc12 (configuration not stated) | inconclusive: 31.6 µM [inhibitor, partial curve, poor fit] |  |
| [CH3][Hg][Cl] |  | inactive: 14.1% |
| CCN(CC)P(=O)(/C=C(\Cl)c1ccccc1)/C=C(\Cl)c1ccccc1 | inconclusive: 35.5 µM [inhibitor, single point] |  |
| COc1cc(C2c3cc4c(cc3C(O)[C@H]3COC(=O)C23)OCO4)cc(OC)c1OC (some centres not stated) | inconclusive: 5.62 µM [inhibitor, single point] |  |
| COc1ccc(-n2c(SCC(=O)c3c(N)n(C)c(=O)n(C)c3=O)nc3ccccc32)cc1 |  | inactive: 13.1% |
| Cc1ccc(N2C(=O)NC(=O)/C(=C/c3ccc(-c4ccc(C(=O)O)c(Cl)c4)o3)C2=O)cc1 | inconclusive: 20 µM [inhibitor, partial curve, poor fit] |  |
| Cc1ccc(C=C2C(Cl)=C(Cl)C(Cl)=C2Cl)cc1 | active: 15.8 µM |  |
| COc1ccc(/C=C2/C(=O)NC(=O)N(c3ccccc3)C2=O)cc1CN1C(=O)c2ccccc2C1=O |  | inactive: 4.8% |
| CCN(CC)c1ccc(/C=C2\C(=O)NC(=O)N(Cc3ccco3)C2=O)cc1 | inconclusive: 31.6 µM [inhibitor, single point] |  |
| O=C1NC(=S)NC(=O)C1=Cc1cccc2cc3ccccc3cc12 |  | inactive: -10.1% |
| CC[C@H](C)[C@H](NC(=O)[C@H](CCCN=C(N)N)NC(=O)[C@H](CCCN=C(N)N)NC(=O)[C@H](CC(C)C)NC(=O)[C@H](Cc1ccccc1)NC(=O)CNC(=O)CNC(=O)[C@@H](N)Cc1ccc(O)cc1)C(=O)N[C@@H](CCCN=C(N)N)C(=O)N1CCC[C@H]1C(=O)N[C@@H](CCCCN)C(=O)N[C@@H](CC(C)C)C(=O)N[C@@H](CCCCN)C(=O)O | inconclusive: 22.4 µM [inhibitor, single point] |  |
| COC(=O)C(O)(c1ccc(NC(=O)Oc2ccccc2)cc1)C(F)(F)F (configuration not stated) | inconclusive: 44.7 µM [inhibitor, single point] |  |
| CCN1C(=O)/C(=C/c2ccc(N(CC)CC)cc2OC)C(=O)NC1=S | inconclusive: 14.1 µM [inhibitor, partial curve] |  |
| CC(C)CC(=O)Nc1ccc(C(=O)Cn2c(=O)oc3ccccc32)cc1 | inconclusive: 25.1 µM [inhibitor, partial curve] |  |
| COC(=O)C1C(c2ccccc2)C2C(=O)c3c(OC)cc(OC)cc3O[C@@]12c1ccc(OC)cc1 (some centres not stated) | inconclusive: 4.47 µM [inhibitor, single point] |  |
| O=C1CC(=O)N(Cc2ccccc2)C(=O)N1CCCCCCN1C(=O)CC(=O)N(Cc2ccccc2)C1=O | inconclusive: 4.47 µM [inhibitor, full curve] |  |

| Compound | Potency | activity change, negative = inhibition |
| --- | --- | --- |
| Cc1cccc(N2C(=O)NC(=O)/C(=C/c3ccc([N+](=O)[O-])o3)C2=O)c1 | inconclusive: 25.1 µM [inhibitor, single point] |  |
| CC(C)OC1CCCC(O)C1CC(=O)O (configuration not stated) | inconclusive: 3.98 µM [inhibitor, single point] |  |
| Cc1ccc(N2C(=O)/C(=C/c3ccc(CN(CCC#N)S(C)(=O)=O)o3)C(=O)NC2=S)cc1C | inconclusive: 44.7 µM [inhibitor, single point] |  |
| Cc1ccc(-n2c(O)c(C=NCc3ccco3)c(=O)[nH]c2=S)cc1C | inconclusive: 44.7 µM [inhibitor, single point] |  |
| O=C(c1ccc2nc(-c3ccco3)c(-c3ccco3)nc2c1)N1CCC2(CC1)OCCO2 | inconclusive: 28.2 µM [inhibitor, partial curve] |  |
| Cc1ccc(N2C(=O)NC(=O)C3(Cc4ccccc4N4CCCC43)C2=O)cc1 (configuration not stated) |  | inactive: 14.6% |
| Cc1cccc(-n2c(O)c(/C=C/C=Nc3ccccc3)c(=O)[nH]c2=O)c1 |  | inactive: 13.2% |
| c1ccc(Nc2ccc3ccccc3c2)cc1 | inconclusive: 6.31 µM [inhibitor, full curve, poor fit] |  |
| O=C1NC(=O)N(Cc2ccc(F)cc2)C(=O)/C1=C\c1ccoc1 | active: 28.2 µM |  |
| Cc1oc2ccc(OC(=O)N(C)C)cc2c1C(=O)OC(C)C |  | inactive: -5.6% |
| CCOC(=O)c1c(NC(=O)c2c(N)n(CCCOC)c3nc4ccccc4nc23)sc2c1CCCC2 |  | inactive: 1.78% |
| COC(=O)c1nc(-c2ccc3c(n2)C(=O)C(N)=C(OC)C3=O)c(N)c(-c2ccc(OC)c(OC)c2O)c1C | inconclusive: 22.4 µM [inhibitor, partial curve] |  |
| CCOc1cccc(=NC2CCCCC2)c2c(C)[nH]c(C)c12 | inconclusive: 44.7 µM [inhibitor, single point] |  |
| CC[C@]1(O)CC(O[C@@H]2CC(N(C)C)C(O)C(C)O2)c2c(cc3c(c2O)C(=O)c2c(O)cccc2C3=O)C1C(=O)OC (some centres not stated) | active: 14.1 µM |  |
| CCn1nc(/C=C/c2ccccc2)nc2c(=O)n(C)c(=O)nc1-2 |  | inactive: 2.44% |
| C[C@@]1([C@@H](NP(=O)(c2ccccc2)c2ccccc2)c2ccccc2)C[C@H]1CCO | inconclusive: 7.08 µM [inhibitor, single point] |  |
| CCCCCCn1c(=O)c(C(=O)Nc2c(C)n(C)n(-c3ccccc3)c2=O)c(O)c2ccccc21 | inconclusive: 44.7 µM [inhibitor, single point] |  |
| O=C(O)C(Cl)Br (configuration not stated) |  | inactive: 16.6% |
| Cc1ccc(-n2c(O)c(C=N)c(=O)n(-c3ccc(C)cc3)c2=O)cc1 | inconclusive: 3.55 µM [inhibitor, single point] |  |
| Oc1ccc(/C=N/NP(=S)(c2ccccc2)c2ccccc2)c(O)c1O | inconclusive: 1.12 µM [inhibitor, full curve, poor fit] |  |
| O=C(O)COc1ccccc1/C=C1\C(=O)NC(=O)N(CCC2=CCCCC2)C1=O | inconclusive: 8.91 µM [inhibitor, single point] |  |
| Cc1ccc(N2C(=O)NC(=O)/C(=C\c3ccsc3)C2=O)cc1C |  | inactive: 0.0977% |
| COc1ccc(NS(=O)(=O)c2ccc3c(c2)oc(=O)n3C)cc1Cl |  | inactive: 53.8% |

Structural class: the entries above containing fluorine (2)

| Compound | Potency | activity change, negative = inhibition |
| --- | --- | --- |
| COC(=O)C(O)(c1ccc(NC(=O)Oc2ccccc2)cc1)C(F)(F)F (configuration not stated) | inconclusive: 44.7 µM [inhibitor, single point] |  |
| O=C1NC(=O)N(Cc2ccc(F)cc2)C(=O)/C1=C\c1ccoc1 | active: 28.2 µM |  |

(cont.)

| Compound | Potency | activity change, negative = inhibition |
| --- | --- | --- |
| Clc1ccc2c(c1)C(c1ccccc1Cl)=NCc1nncn1-2 | inconclusive: 3.16 µM [inhibitor, single point] |  |
| COc1cc(/C=C/c2nc3ccccc3c(=O)n2-c2cccc(O)c2)ccc1O | inconclusive: 0.316 µM [inhibitor, single point] |  |
| CC(C)Nc1ccc(Nc2ccccc2)cc1 | inactive |  |
| CCC12CCN(CC3CC3)CC1Oc1c(C)cccc12 (configuration not stated) |  | inactive: 7.54% |
| Cc1cccc(CN2CCN(Cc3ccc(Cl)cc3)CC2)c1 |  | inactive: 0.583% |
| CCCCCCCCCCCCCCCCOC[C@H](COP(=O)([O-])OCC[N+](C)(C)C)OC(C)=O | inconclusive: 25.1 µM [inhibitor, partial curve, poor fit] |  |
| O=P(CCl)(Nc1ccccc1)C(Cl)(Cl)Cl (configuration not stated) | inconclusive: 2 µM [inhibitor, partial curve] |  |
| CC/C(CC(c1ccccc1)c1c(O)c2ccccc2oc1=O)=N\NC(N)=S (configuration not stated) | active: 25.1 µM |  |
| C=CCn1c(O)c(/C=C2\C=Nc3ccccc32)c(=O)[nH]c1=O | inconclusive: 2.82 µM [inhibitor, single point] |  |
| CCN1C(=O)CC(c2cccnc2)=Nc2ccccc21 |  | inactive: 6.25% |
| COc1ccc(OC)c(-n2c(O)c(C=Nc3c(C)n(C)n(-c4ccccc4)c3=O)c(=O)[nH]c2=O)c1 |  | inactive: 5.01% |
| O=[N+]([O-])c1ccc2c3c(cccc13)CC2 |  | inactive: -5.43% |
| CC(C)C[C@H](NC(=O)[C@@H]1CCCN1C(=O)[C@@H](N)Cc1ccc(O)cc1)C(=O)NCC(N)=O (H-YPLG-NH2) | inconclusive: 50.1 µM [inhibitor, partial curve] |  |
| C[C@]12CC[C@H]3[C@@H](CCC4=CC(=O)CC[C@@H]43)[C@@H]1CC[C@@H]2OC(=O)CCc1ccccc1 |  | inactive: -4.12% |
| Cl/C=C/CCl |  | inactive: 17.3% |
| CCc1cccc(C)c1NC(=S)N1CC2CC(C1)c1cccc(=O)n1C2 (configuration not stated) |  | inactive: 3.44% |
| C/C=C1/C[C@@H](C)[C@@](C)(O)C(=O)OCC2=CCN3CC[C@@H](OC1=O)[C@@H]23 | inconclusive: 35.5 µM [inhibitor, single point] |  |
| Oc1cc(O)c2c(c1)OC(c1cc(O)c(O)c(O)c1)C(O)C2 (configuration not stated) | active: 10 µM |  |
| Cc1nn(Cc2ccccc2Cl)c(C)c1C(=O)OCC(=O)NC1CCS(=O)(=O)C1 (configuration not stated) | inconclusive: 0.005 µM [inhibitor, full curve, poor fit] |  |
| C[N+](C)(C)CCCCCCCCCC[N+](C)(C)C | inconclusive: 2 µM [inhibitor, partial curve, poor fit] |  |
| COc1ccc(-n2c(-c3ccc(C)cc3)nc3ccccc3c2=O)cc1 | inconclusive: 0.0112 µM [inhibitor, full curve, poor fit] |  |
